{"sequences": {"note": "Protein sequences, listed by entry. Tags and fused reporters are not part of them.", "UniProt P26641": "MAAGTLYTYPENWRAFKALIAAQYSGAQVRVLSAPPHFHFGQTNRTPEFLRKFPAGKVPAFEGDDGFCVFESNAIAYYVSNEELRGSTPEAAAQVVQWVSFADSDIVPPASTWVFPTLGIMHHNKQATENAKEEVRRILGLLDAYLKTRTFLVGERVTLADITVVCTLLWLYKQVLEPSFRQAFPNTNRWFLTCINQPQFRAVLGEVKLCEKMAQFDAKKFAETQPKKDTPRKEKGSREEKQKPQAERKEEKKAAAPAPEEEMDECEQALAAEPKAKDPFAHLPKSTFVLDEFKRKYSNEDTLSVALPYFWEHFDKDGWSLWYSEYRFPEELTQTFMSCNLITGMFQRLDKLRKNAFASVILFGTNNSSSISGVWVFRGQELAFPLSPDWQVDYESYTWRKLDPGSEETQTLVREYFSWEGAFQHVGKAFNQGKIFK"}, "source": "paper doi:10.1101/2024.09.13.612607", "molecular_target": "T1, YTH domain family protein 1 (YTHDF1) (human (endogenous in H1975)) (UniProt Q9BYJ9)", "T1 sequence": "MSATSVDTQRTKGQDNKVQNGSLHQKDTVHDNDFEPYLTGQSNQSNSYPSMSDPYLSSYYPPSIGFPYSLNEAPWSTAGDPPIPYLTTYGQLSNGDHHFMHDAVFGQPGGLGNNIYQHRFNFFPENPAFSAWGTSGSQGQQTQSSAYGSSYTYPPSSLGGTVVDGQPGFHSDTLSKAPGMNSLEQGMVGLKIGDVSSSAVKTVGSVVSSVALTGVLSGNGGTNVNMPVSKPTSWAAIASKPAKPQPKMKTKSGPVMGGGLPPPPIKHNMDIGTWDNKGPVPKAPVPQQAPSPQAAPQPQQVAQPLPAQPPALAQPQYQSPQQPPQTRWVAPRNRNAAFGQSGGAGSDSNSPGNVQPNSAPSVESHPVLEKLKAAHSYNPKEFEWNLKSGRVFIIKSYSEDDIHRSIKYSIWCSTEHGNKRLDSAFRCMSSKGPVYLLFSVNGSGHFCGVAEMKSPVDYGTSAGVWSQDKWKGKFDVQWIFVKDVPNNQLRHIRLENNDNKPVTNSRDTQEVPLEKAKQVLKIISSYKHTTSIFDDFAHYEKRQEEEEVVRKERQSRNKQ", "experiment": "co-IP", "note": "These are yes or no findings as the source states them, for the method shown. In cells and extracts the contact can be indirect. Some binding calls cover weakened binding; strength is not graded here.", "data": [{"substance": "EEF1G (from UniProt P26641 1-437)", "values": [{"measurement": "binding", "value": "binds"}]}]}
